# This is one part of the list.
# The chains behind the UniProt entries cited, without tags or fusion partners.
# UniProt Q0JBA9, entry or part of it: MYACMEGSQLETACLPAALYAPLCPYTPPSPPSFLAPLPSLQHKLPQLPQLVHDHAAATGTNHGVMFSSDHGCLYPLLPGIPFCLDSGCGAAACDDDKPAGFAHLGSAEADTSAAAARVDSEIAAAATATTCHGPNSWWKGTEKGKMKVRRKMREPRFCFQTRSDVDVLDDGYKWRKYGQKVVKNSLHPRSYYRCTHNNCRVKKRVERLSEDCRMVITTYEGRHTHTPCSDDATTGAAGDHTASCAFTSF
# Biological target: OsWRKY34 (Oryza sativa, UniProt Q0JBA9 1-250)
# Experiment: protein-binding microarray (RPBM); PBS, 2% BSA, 51.3 ng/ul salmon testes DNA, 50 uM zinc acetate, 200 nM TF, 25 C, 1 h; high values mean tight binding
# Settings: protein: recombinant; tags: N-terminal polyhistidine and DsRed monomer fusion (pET32a); label: CyDye5-dUTP incorporated in the synthesized complementary strand; 3' TTTTT single-stranded linker to array surface; dsDNA, one strand shown
# How it was run: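 Binding signal is reported as fluorescence intensity per feature (arbitrary units) from an Axon 4000B scanner. Incubation used 200 nM of each Ni–NTA-purified, N-terminally polyhistidine- and DsRed-fused transcription factor from E. coli BL21-CodonPlus on a double-stranded custom Agilent array for 1 h at 25 °C, with 50 µM zinc acetate in the buffer, followed by washing.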
row,Sequence,binding signal
1,AATTTTGACTTTTTCTTGACTAATTAGGCCATCCGATGGGCGGAGTCACCTAGTGCAG,17800 fluorescence intensity (a.u.)
2,GTGAGTGTGAGCGGTTTGCATGTTCTTTCTAGACAAATTTCGGAGTCACCTAGTGCAG,8160 fluorescence intensity (a.u.)
3,ACGCCCACTGGTACTACTTTGCCATAGATTCTTTTTATTCCGGAGTCACCTAGTGCAG,10300 fluorescence intensity (a.u.)
4,AACTCTCTCCGCTCCAAACGACTAGCTCGATCACTTGCTACGGAGTCACCTAGTGCAG,8740 fluorescence intensity (a.u.)
5,CCCGCTCGCCGCCACCGTGTCACGCCGGCAGCCTCAGGTTCGGAGTCACCTAGTGCAG,8860 fluorescence intensity (a.u.)
6,CCCCACCCCTGCGCGGCCTCCTCGCGCGCACGGCCGGCGCCGGAGTCACCTAGTGCAG,9680 fluorescence intensity (a.u.)
7,CTATGGTTTGGTTTGAATTTTACTGTTGTATGCTGTTCCCCGGAGTCACCTAGTGCAG,8660 fluorescence intensity (a.u.)
8,TCACCTCATTTTACGTATCTTCCCAATTTCCTTTATCTCCCGGAGTCACCTAGTGCAG,13600 fluorescence intensity (a.u.)
9,CTCCATGCCAATCCTCGTGTAAACTCTCATTCCTCTTCTCCGGAGTCACCTAGTGCAG,11500 fluorescence intensity (a.u.)
10,CTCTCTCTCTCTCTCTCTCTCTGCTCCCGCCGGAGGCAACCGGAGTCACCTAGTGCAG,9040 fluorescence intensity (a.u.)
11,GTCCCTAGGCGGTTTTGACTCCAGTTTTGTCCCACGTGGCCGGAGTCACCTAGTGCAG,11800 fluorescence intensity (a.u.)
12,TCATGGATTTCGCCCCTTCTCAGCCTCAATCTCGGCACCACGGAGTCACCTAGTGCAG,8070 fluorescence intensity (a.u.)
13,CTGAGCTCCGCCGTCCACCGCTATCGGCTTGAAACCGCCGCGGAGTCACCTAGTGCAG,8080 fluorescence intensity (a.u.)
14,CGTGAGATTTGGCTGGGGAGTGGTGGTGGTGCGCCGCGGGCGGAGTCACCTAGTGCAG,8920 fluorescence intensity (a.u.)
15,GCGGGATGGGGAGGCGGCGCCGCGAGGAGGAGGGGATGGGCGGAGTCACCTAGTGCAG,11900 fluorescence intensity (a.u.)
16,CATGGACTCTGCTCATCGTTACATTTGTTGCTTCTCCTTGCGGAGTCACCTAGTGCAG,10700 fluorescence intensity (a.u.)
17,TTGGCTGCACAACCTTTTATCAGTCGATCCCCACCGCCGGCGGAGTCACCTAGTGCAG,8240 fluorescence intensity (a.u.)
18,ACATTTCTCCCATTTTTAATTTTGCTTGTGGTTGGAACTTCGGAGTCACCTAGTGCAG,8200 fluorescence intensity (a.u.)
19,TAAATTTCCAACTTTTTCATCAGATCGTTCCAATTTTAACCGGAGTCACCTAGTGCAG,8330 fluorescence intensity (a.u.)
20,AGTTTCAGAACTCACCTCTTTATTAATACATTTAGTTGTTCGGAGTCACCTAGTGCAG,8850 fluorescence intensity (a.u.)
21,AAGTGATTTCACGGTTTGAGAAGTTATTGGGGAGGTATATCGGAGTCACCTAGTGCAG,9350 fluorescence intensity (a.u.)

row,Sequence,binding signal
1,CTCAACACTTGCACGAGTTCTTCGTTGCTTGCCGCTCTATCGGAGTCACCTAGTGCAG,9120 fluorescence intensity (a.u.)
2,ATGGGTGTTTGTTTTTCGCTAATGTGGCATCCTAGTCAGACGGAGTCACCTAGTGCAG,9480 fluorescence intensity (a.u.)
3,ATTCCATTACCTCTGCTATATATACACACAAACCGCTGACCGGAGTCACCTAGTGCAG,10300 fluorescence intensity (a.u.)
4,CGTCGTGTGCGTTCTGTTAGTTTGGTTGAGTCGTGATCACCGGAGTCACCTAGTGCAG,12200 fluorescence intensity (a.u.)
5,CGGGCTGACACCCTGTGCCTTTTTCCTTTTGTTTCTTTTGCGGAGTCACCTAGTGCAG,8240 fluorescence intensity (a.u.)
6,TCTGCGTCGTGTACTCGTGTGCTTTGGTGTTTTAATTTCTCGGAGTCACCTAGTGCAG,12100 fluorescence intensity (a.u.)
7,GGTGGTGGTGGTGGAGAGAGAGAGGAGTGCGTCGCCGACGCGGAGTCACCTAGTGCAG,11700 fluorescence intensity (a.u.)
8,TGCCGGTGTGGCTTGCTGAGTACTGTGGTTGTACTCATTCCGGAGTCACCTAGTGCAG,8060 fluorescence intensity (a.u.)
9,TTTTGCTTATCATATCATATATTTTCTAAGCTTGATTTTTCGGAGTCACCTAGTGCAG,8050 fluorescence intensity (a.u.)
10,ACTACACCTACGGCTCATATGGACCCGGTCCACACAAATTCGGAGTCACCTAGTGCAG,10200 fluorescence intensity (a.u.)
11,ATCCCGCCGCCTCTCCTCCTTATCCCCTCCATCTTCTCCGCGGAGTCACCTAGTGCAG,9520 fluorescence intensity (a.u.)
12,ATATATCATACCTTGGTACATTTGTCAGCCTCACGGCAGTCGGAGTCACCTAGTGCAG,8190 fluorescence intensity (a.u.)
13,GCATTATTCTTGTTAGACAGTCGTTGACCCTAAATGAACTCGGAGTCACCTAGTGCAG,10600 fluorescence intensity (a.u.)
14,CGTATGGCCAAAATTGATTATAGCTTTTTTTTATTTAGTGCGGAGTCACCTAGTGCAG,8030 fluorescence intensity (a.u.)
15,CCCACCGCCACCACCGCCGCTTCCGACCACCCCGTCCTCACGGAGTCACCTAGTGCAG,10700 fluorescence intensity (a.u.)
16,CCCCAATCCTCGCATGCCAACTCACCTGTGTTGCTTTTGCCGGAGTCACCTAGTGCAG,8830 fluorescence intensity (a.u.)
17,TTCTGCAATGGTATCTCTCGTCTGAGAGCGGTTGGTTCTTCGGAGTCACCTAGTGCAG,11200 fluorescence intensity (a.u.)
18,GAGTATGATAGTTGTGTGGTTTTTACCCCGTTTTCGCTAACGGAGTCACCTAGTGCAG,10800 fluorescence intensity (a.u.)
19,AGAAGACACACTTTAGTACTAACACTTCAACATTTTTCACCGGAGTCACCTAGTGCAG,8150 fluorescence intensity (a.u.)
20,ATAAAATAGTTGACTGGCTATCTTCTACTCCACTTGGTATCGGAGTCACCTAGTGCAG,8860 fluorescence intensity (a.u.)
21,GTTTGACACTTTTAGTACGTGTTTGACCATTTGTTTTATTCGGAGTCACCTAGTGCAG,10200 fluorescence intensity (a.u.)

row,Sequence,binding signal
1,CAATACCCTTCATCCATCTTTTGGCTATTTGGCAGTTTCTCGGAGTCACCTAGTGCAG,8660 fluorescence intensity (a.u.)
2,CATTTTTTCCTTTTTTTCAGGGCGTGACATGCCGGCACTCCGGAGTCACCTAGTGCAG,9790 fluorescence intensity (a.u.)
3,AACTACAACTATCTTGTTTTTATTTACACGCTTTTCAAACCGGAGTCACCTAGTGCAG,8620 fluorescence intensity (a.u.)
4,CCTTTGTGCTGTTTTCCATGTGTGTACCATTTGTATTTCTCGGAGTCACCTAGTGCAG,12600 fluorescence intensity (a.u.)
5,GTACTCCATTTGTCTCTAAATTTTTGGTTGGATGTTACACCGGAGTCACCTAGTGCAG,9860 fluorescence intensity (a.u.)
6,TGTGCTAAAAAGTCAACGGTGTCAAACATTTAGAAACGGACGGAGTCACCTAGTGCAG,9200 fluorescence intensity (a.u.)
7,AGGCGAGCGAGACGGCGGCGGGCGGGCGGGGCGGGCGACGCGGAGTCACCTAGTGCAG,14800 fluorescence intensity (a.u.)
8,AGGTGAGGGGATTTGATATTATTTCTTGGATTTTAGGGTGCGGAGTCACCTAGTGCAG,9440 fluorescence intensity (a.u.)
9,CGAGCAACACGGCGAAGTTTCTGTTCCTCATTTCCGCTTCCGGAGTCACCTAGTGCAG,8300 fluorescence intensity (a.u.)
10,ACTCAGCATCGGGTCCCGCATCACTTTTGTTTGAATGGAACGGAGTCACCTAGTGCAG,9180 fluorescence intensity (a.u.)
11,GGTTGGTTTGTTGTGTGGTAGGTAGGTGAGACGCATGTGCCGGAGTCACCTAGTGCAG,10600 fluorescence intensity (a.u.)
12,ATGGCACAAGTCTCGTTCACATTTGTTTTCATATATTTCCCGGAGTCACCTAGTGCAG,10800 fluorescence intensity (a.u.)
13,CCCTCGCGCACCGATCTCCGCTGTAGTTCTCCGCGCCGCCCGGAGTCACCTAGTGCAG,8540 fluorescence intensity (a.u.)
14,CCTCTTCTCCTTCGGTGTGTTCGTCGATGTGCTTTGCTGACGGAGTCACCTAGTGCAG,8580 fluorescence intensity (a.u.)
15,CTAGTGCTGCTTCATGTTATTATATGCTGAAATTGTGGGCCGGAGTCACCTAGTGCAG,8640 fluorescence intensity (a.u.)
16,ACATCACACAACACAGCCTCATCTCTCATGCTGTCATGCTCGGAGTCACCTAGTGCAG,9040 fluorescence intensity (a.u.)
17,CTTCTCCTGCTTGTTTCCTTGTCTTGTGGTGCATCACATCCGGAGTCACCTAGTGCAG,8810 fluorescence intensity (a.u.)
18,CTATTGATACTTATTTCTGTTAGCATCTTTTGTGCATCGTCGGAGTCACCTAGTGCAG,8330 fluorescence intensity (a.u.)
19,TCTTGTTTCGAAACCTACGTATTAATCTGACTCTGTTTTTCGGAGTCACCTAGTGCAG,13500 fluorescence intensity (a.u.)
20,GGATCGTTATTTTGCTTGTTAGTGTGTCGTCCACTGGCTTCGGAGTCACCTAGTGCAG,11100 fluorescence intensity (a.u.)
21,GCCCGTTTCTGATGATCATCGCCAGTTCACCACCGGTGAACGGAGTCACCTAGTGCAG,8280 fluorescence intensity (a.u.)

row,Sequence,binding signal
1,GCCGACTCCTCCGCCCACTCGGTTTCCACGCGTCGTTTATCGGAGTCACCTAGTGCAG,16200 fluorescence intensity (a.u.)
2,TTTCGACTAACGTTTGACCATTCGTTTTATTCAAAATTTTCGGAGTCACCTAGTGCAG,8880 fluorescence intensity (a.u.)
3,GTCTTTGGTTGAGGTAGTGCACTATGATTAAATTTACAATCGGAGTCACCTAGTGCAG,8540 fluorescence intensity (a.u.)
4,GACAACGGTCAAATATGTGCTAAAAAGTCAACGGTATCAACGGAGTCACCTAGTGCAG,11600 fluorescence intensity (a.u.)
5,CTGCACAATCACATGATCTCATTTTAATTAGTTCAATACCCGGAGTCACCTAGTGCAG,9090 fluorescence intensity (a.u.)
6,GATGGGGCGAAATTACTAAAGTACCCTCGATTTTTTGACGCGGAGTCACCTAGTGCAG,8920 fluorescence intensity (a.u.)
7,ACCCAGCTTTTCCATATTCTCATAAGCTGGATACCGACCACGGAGTCACCTAGTGCAG,8060 fluorescence intensity (a.u.)
8,CACTGACTCACACCCCGTCACTCCCCTCTTCTCCTCACCTCGGAGTCACCTAGTGCAG,8170 fluorescence intensity (a.u.)
9,GCTAGTCTACTTCACCTTCCATCATCCGCTCAACGGTGAACGGAGTCACCTAGTGCAG,8220 fluorescence intensity (a.u.)
10,ATTGTTATCCTCAATTTCCTCTTGTTCATGTGCTCTTTCTCGGAGTCACCTAGTGCAG,11300 fluorescence intensity (a.u.)
11,CCCCAATGAATCATAGGCTCAACCTGCTCCTGCTGCAACACGGAGTCACCTAGTGCAG,8040 fluorescence intensity (a.u.)
12,ACATTCCTATCCCATTTTTTTCATTATTATTCTCTATGTTCGGAGTCACCTAGTGCAG,10600 fluorescence intensity (a.u.)
13,ATTTGTCTCTTTCGCGTCGTCTCTAACCTAACGTCCCAGACGGAGTCACCTAGTGCAG,13100 fluorescence intensity (a.u.)
14,GGTGGTCTTCTTTTTTTGCGGTGGAGTTGGATTTGGGTTGCGGAGTCACCTAGTGCAG,13000 fluorescence intensity (a.u.)
15,CCACCCCAACTATTATTGCTATCTTACCGACTTACCGTGTCGGAGTCACCTAGTGCAG,8960 fluorescence intensity (a.u.)
16,TCAGTCGATTTCTTCTTCCCGAAGCTTTCCAGCGCCTCATCGGAGTCACCTAGTGCAG,8290 fluorescence intensity (a.u.)
17,TTTGTTGTTCAAACTTTTGTTATGGTTAGTTAGGTCTATACGGAGTCACCTAGTGCAG,8490 fluorescence intensity (a.u.)
18,TCTTATCTCCTCGCCTCCACCTCCTCACCTGTAGTTTTCCCGGAGTCACCTAGTGCAG,10600 fluorescence intensity (a.u.)
19,AACACCAACACACCCTCGGGCCACGACTTCGACTACAACGCGGAGTCACCTAGTGCAG,8530 fluorescence intensity (a.u.)
20,GCGCGCGCCGCCGTCGTCATCCCCGTCGCTTCGCGCCTTCCGGAGTCACCTAGTGCAG,9150 fluorescence intensity (a.u.)
21,ATCTCCACCCCGACTCAGATCGCCTCCACTTCCAGCAGAGCGGAGTCACCTAGTGCAG,8600 fluorescence intensity (a.u.)

# A different layout for some results above:
row	Sequence	binding signal
2	TTTCGACTAACGTTTGACCATTCGTTTTATTCAAAATTTTCGGAGTCACCTAGTGCAG	8880 fluorescence intensity (a.u.)
10	ATTGTTATCCTCAATTTCCTCTTGTTCATGTGCTCTTTCTCGGAGTCACCTAGTGCAG	11300 fluorescence intensity (a.u.)
13	ATTTGTCTCTTTCGCGTCGTCTCTAACCTAACGTCCCAGACGGAGTCACCTAGTGCAG	13100 fluorescence intensity (a.u.)
19	AACACCAACACACCCTCGGGCCACGACTTCGACTACAACGCGGAGTCACCTAGTGCAG	8530 fluorescence intensity (a.u.)

# For convenience, some entries already given.
row,Sequence,binding signal
2,TTTCGACTAACGTTTGACCATTCGTTTTATTCAAAATTTTCGGAGTCACCTAGTGCAG,8880 fluorescence intensity (a.u.)
3,GTCTTTGGTTGAGGTAGTGCACTATGATTAAATTTACAATCGGAGTCACCTAGTGCAG,8540 fluorescence intensity (a.u.)
4,GACAACGGTCAAATATGTGCTAAAAAGTCAACGGTATCAACGGAGTCACCTAGTGCAG,11600 fluorescence intensity (a.u.)
